Results on 59 compounds are retold here after PubChem BioAssay AID2685 (National Center for Advancing Translational Sciences (NCATS), 2010).

Broadly, the AC50 is the concentration at which the activity in the assay is half-maximal. A lower AC50 goes with greater potency.

The list shows a part of the results. These are further read-outs of the screen, such as a control signal, another cell line or another target. No call is given for them. Compounds called inactive in the main read-out are mostly missing here. Words in brackets tell the shape of the fitted curve; partial curves, single points and poor fits give uncertain potencies.

A short description of the assay: qHTS Assay for Lipid Storage Modulators in Drosophila S3 Cells.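 As to cell number change: cells counted by Cell Tracker Red CMTPX staining in the red channel.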 The following applies: BODIPY lipid droplet fluorescence, 18-24 h; for cell number change: measured here: cell count max response, cells fed with added oleic acid. The method in brief: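 Laser-scanning cytometry quantifies lipid droplet accumulation (500–530 nm total intensity; droplet/cell object ratio) in oleic acid-fed (400 uM added) Drosophila S3 cells treated with a concentration series. 20 uM Triacsin C defined 100% inhibition.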
(qHTS replaces the single test concentration by a dilution series.)

Where [1] appears, read: measured here: lipid fluorescence (Fed channel) AC50, cells fed with added oleic acid.
Where [2] appears, read: measured here: cell number channel AC50, cells fed with added oleic acid.

On to `CCOC(=O)c1c(C)[nH]c(C)c1S(=O)(=O)N(C)CC(=O)NCc1ccc(C)cc1`, for which the cell number change was -12.5%. Under setting [1], the AC50 is 6.51 µM [rising, partial curve, poor fit].
On to `Cc1cccc(OCC(O)Cn2c(=N)n(CCN3CCOCC3)c3ccccc32)c1` (stereo not drawn), for which the cell number change came out at 8.92%.
As for `CCn1nnnc1NCc1ccc(OCc2ccc(F)cc2Cl)c(OC)c1`, the cell number change came to 8.7%. For the same compound, the AC50 under setting [2] was 3.26 µM [rising, partial curve].
For the compound `O=C(CCNS(=O)(=O)c1cccc2nsnc12)N1CCc2ccccc21`, the cell number change was -58.1%. Also, under setting [2], the AC50 is 23.1 µM [falling, single point].
For the compound `O=[N+]([O-])c1ccc(N(CCO)Cc2ccccc2)c([N+](=O)[O-])c1`, the cell number change was -9.82%. Moreover, the half-maximal activity concentration (AC50) under setting [1] is 18.4 µM [falling, partial curve].
As to `CCOc1cc(/C=N/NC(=O)c2cc(C)n(-c3ccc(F)cc3)c2C)ccc1O`, the cell number change turned out to be 21.9%. For the same compound, the half-maximal activity concentration (AC50) under setting [2] is 6.51 µM [rising, partial curve, poor fit]. Moreover, under setting [1], the concentration at half-maximal activity (AC50) is 5.17 µM [rising, partial curve].
Take `O=C(O)C1CC(O)CN1S(=O)(=O)c1ccc2ccccc2c1` (stereo not drawn): the AC50 under setting [1] is 0.231 µM [falling, full curve, poor fit].
Regarding `Cc1ccc(CCNC(=O)C2CCC(=O)N2C(C)C)cc1` (stereo not drawn), the cell number change was -18.4%. Further, the AC50 under setting [1] was 13 µM [falling, partial curve].
Turning to `O=C(C1CCN(S(=O)(=O)N2CCC3(CC2)OCCO3)CC1)N1CCCCC1`, the cell number change was -14.9%. Besides, under setting [1], the concentration at half-maximal activity (AC50) was 0.116 µM [falling, full curve, poor fit].
In the case of `CCOc1cccc(C2c3c(oc4ccccc4c3=O)C(=O)N2c2ccccn2)c1` (stereo not drawn), the cell number change was determined as 9.95%. Also, under setting [2], the AC50 was 0.326 µM [rising, full curve, poor fit]. Besides, under setting [1], the half-maximal activity concentration (AC50) was 6.51 µM [rising, single point].
On to `COc1ccc(NC(=O)C2CCCN(S(=O)(=O)c3c(C)[nH]c(=O)[nH]c3=O)C2)cc1` (stereo not drawn), for which the cell number change was 7.7%. Further, the AC50 under setting [1] was 2.31 µM [rising, single point].
Regarding `O=C1CC[C@H](O)CCN1[C@H](CSc1ccc(Br)cc1)Cc1ccccc1`, the cell number change was determined as 7.8%. Further, the AC50 under setting [2] was 3.26 µM [falling, single point].
On to `CC(OC(=O)/C(C#N)=C/c1ccc(N(C)C)cc1)C(=O)N(C)Cc1ccccc1` (stereo not drawn), for which the cell number change is -13%.
`COc1cccc(NC(=O)CN(C)C(=O)c2ccccc2CCc2ccccc2)c1`: the cell number change was -5.89%. Also, under setting [1], the AC50 was 0.461 µM [falling, full curve, poor fit].
Consider `CC(Sc1nnc(N)s1)C(=O)NCc1ccc2c(c1)OCO2` (stereo not drawn), for which the cell number change was -3.26%. Moreover, the AC50 under setting [2] was 0.291 µM [falling, single point].
Regarding `Cc1ccccc1Nc1cccc2nonc12`, the cell number change is -0.683%. Also, the AC50 under setting [1] was 1.3 µM [falling, partial curve].
Regarding `COc1ccc(Cc2c(O)nc(SCC(C)C)[nH]c2=O)cc1`, the cell number change is -5.97%. Also, under setting [1], the AC50 is 18.4 µM [falling, single point].
`CCCNC(=O)c1ccc(COc2cccc3ccccc23)o1`: the cell number change was -27.7%. For the same compound, the half-maximal activity concentration (AC50) under setting [1] is 29.1 µM [falling, single point].
Take `CCCn1c(SCc2ccon2)nc2ccccc2c1=O`: the cell number change is -0.583%. Further, the half-maximal activity concentration (AC50) under setting [1] was 0.731 µM [rising, single point].
In the case of `Cc1csc(NC(=O)c2nc3nccc(C)n3n2)n1`, the cell number change was 15.3%. In addition, the AC50 under setting [1] is 0.116 µM [falling, full curve, poor fit].
As for `COCCn1c(SCC(=O)NC(=O)NCc2ccccc2)nc2ccccc21`, the cell number change was -13.2%.
Same read-out and setting: for `Cc1cccc(NC(=O)CSc2nc3ccc(N4C(=O)c5ccccc5C4=O)cc3s2)c1C` the value was -11.5%.
With `O=C(c1cccc(F)c1)N1CCN(c2cccc(C(F)(F)F)c2)CC1`, the cell number change worked out at 143%. Moreover, the AC50 under setting [2] was 23.1 µM [rising, single point]. In addition, under setting [1], the AC50 is 29.1 µM [rising, single point].
Consider `Cc1ccnc(NC(=O)CCC(=O)N(CC(=O)NCCc2ccccc2)c2ccccc2F)c1`, for which the cell number change was -19.2%. The AC50 under setting [1] was 29.1 µM [falling, partial curve, poor fit].
For `Cc1ccc(S(=O)(=O)Cn2nnnc2CN2CCN(Cc3ccc4c(c3)OCO4)CC2)cc1`, the cell number change was -18.6%.
Regarding `CC(=O)N1CCOc2ccc(S(=O)(=O)NCc3ccccc3Cl)cc21`, the cell number change turned out to be 18.8%. Further, under setting [1], the AC50 was 20.6 µM [rising, partial curve].
Consider `CC(C)(C)C(C(=O)O)N1CCS(=O)(=O)CC1` (stereo not drawn), for which the cell number change is -15.4%. Also, the half-maximal activity concentration (AC50) under setting [2] was 0.164 µM [falling, full curve, poor fit].
On to `O=C1CCN(Cc2cccnc2)CCN1[C@H](CO)c1ccccc1`, for which the cell number change turned out to be 23.1%. Under setting [1], the half-maximal activity concentration (AC50) is 29.1 µM [rising, single point].
On to `O=P(OC1CCS(=O)(=O)C1)(c1ccccc1)c1ccccc1` (stereo not drawn), for which the cell number change was -30.7%. Moreover, the AC50 under setting [1] was 0.00461 µM [falling, full curve, poor fit].
Take `Cc1cc(S(=O)(=O)N2CCCC(C)C2)ccc1-n1cnnn1` (stereo not drawn): the cell number change was found to be 35.7%.
In the case of `COc1cccc(NC(=S)N(CCc2c(C)[nH]c3ccccc23)Cc2cccs2)c1`, the cell number change was -4.06%. For the same compound, under setting [1], the AC50 is 0.231 µM [rising, full curve].
Consider `COCCCn1c(SCc2cccc(OC)c2)nc2cc(OC)c(OC)cc2c1=N`, for which the cell number change is -18.8%. Besides, the AC50 under setting [1] is 29.1 µM [falling, single point].
`CC1(C)OC(=O)N(CCc2ccccc2)C1(C)O` (stereo not drawn): the cell number change is -1.35%. For the same compound, the AC50 under setting [1] is 1.84 µM [falling, partial curve].
As to `O=C(CCNS(=O)(=O)c1ccc(Cl)cc1)NCc1cccs1`, the cell number change was -21.7%. In addition, under setting [1], the AC50 was 20.6 µM [falling, single point].
Turning to `COC(=O)c1ccc(C)c(NC(=O)Cn2cnc3ccccc3c2=O)c1`, the cell number change was determined as 23.9%. For the same compound, the AC50 under setting [1] was 3.26 µM [falling, partial curve, poor fit].
As to `COc1ccc2[nH]c3c4c(ccc3c2c1)C(=O)C=CC4=O`, the cell number change was -60.2%. Also, the concentration at half-maximal activity (AC50) under setting [2] is 9.2 µM [falling, partial curve]. Moreover, the AC50 under setting [1] is 9.2 µM [falling, partial curve].
As for `COc1cc(C(=O)N2CCN(C(=O)C3CCCO3)CC2)cc(OC)c1OC` (stereo not drawn), the cell number change worked out at 4.37%. Besides, under setting [1], the half-maximal activity concentration (AC50) is 1.84 µM [rising, full curve].
Consider `CCOC(=O)c1ccc(N/C(=N/S(=O)(=O)c2ccccc2)c2ccccc2)cc1`, for which the AC50 under setting [1] is 18.4 µM [rising, partial curve].
In the case of `CCCCn1c(NCc2ccc3c(c2)OCO3)nc2ccccc21`, the cell number change is 0.531%. In addition, the AC50 under setting [1] was 2.31 µM [falling, full curve, poor fit].
Take `Cc1ccccc1C(=O)N1CCC(C(=O)Nc2ccc(F)cc2)CC1`: the cell number change came out at 74.9%. Also, the half-maximal activity concentration (AC50) under setting [2] was 29.1 µM [rising, single point]. Besides, the concentration at half-maximal activity (AC50) under setting [1] is 29.1 µM [rising, single point].
Consider `CC1C(O)=C(c2nc3ccccc3[nH]2)C(=N)N1c1ccccc1` (stereo not drawn), for which the cell number change was 16.9%.
On to `Cc1cc2nnc(SC3CCCCN(C(=O)c4ccc(F)cc4)C3=O)n2c2ccccc12` (stereo not drawn), for which the cell number change was 38.8%. Also, under setting [2], the AC50 is 10.3 µM [rising, partial curve, poor fit]. For the same compound, under setting [1], the concentration at half-maximal activity (AC50) is 1.64 µM [rising, partial curve, poor fit].
Take `Cc1ccccc1N1C(S)=C(C#N)C(=O)NC1c1ccco1` (stereo not drawn): the cell number change is -18.9%. Also, the AC50 under setting [1] was 32.6 µM [falling, single point].
Turning to `O=C(Nc1ccc(OCC(F)(F)C(F)F)c(C(F)(F)F)c1)c1ccccc1O`, the cell number change is -136%. In addition, the half-maximal activity concentration (AC50) under setting [2] was 16.4 µM [falling, single point]. For the same compound, the AC50 under setting [1] is 23.1 µM [falling, single point].
As for `COc1ccc(C2CC(=O)C3=C(C2)Nc2ccccc2NC3c2coc3ccccc3c2=O)cc1OC` (stereo not drawn), the cell number change was 75.7%. The AC50 under setting [2] is 11.6 µM [rising, partial curve, poor fit]. Moreover, under setting [1], the AC50 was 23.1 µM [rising, partial curve, poor fit].
As to `O=C(CSCc1nc2ccccc2[nH]1)N1CCN(c2cccc(Cl)c2)CC1`, the cell number change was -12.9%.
On to `O=C(COc1cccc2cccnc12)Nc1ccccc1N1CCOCC1`, for which the AC50 under setting [1] is 0.58 µM [falling, full curve, poor fit].
For the compound `CN1CCC(N(C)S(=O)(=O)c2ccc(NC(=O)COc3ccc(Cl)cc3)cc2)CC1`, the cell number change is -6.14%. Besides, the concentration at half-maximal activity (AC50) under setting [1] was 29.1 µM [falling, single point].
For the compound `COc1ccccc1CNC(=O)c1cc(-c2ccncc2)nc2c(Cl)cccc12`, the cell number change is -9.34%.
Take `CCCCOc1ccc(Cl)cc1CSc1nnc(CC)n1N`: the cell number change amounted to 31.5%. Further, under setting [2], the half-maximal activity concentration (AC50) is 20.6 µM [rising, single point]. Moreover, under setting [1], the AC50 is 0.58 µM [rising, single point].
Take `Cc1c(C(=O)NCCSCc2ccc(Cl)cc2Cl)cccc1[N+](=O)[O-]`: the cell number change was -3.21%. Further, the concentration at half-maximal activity (AC50) under setting [1] is 29.1 µM [falling, partial curve, poor fit].
Turning to `CCOc1ccccc1NC(=O)CSc1ccc(-c2ccco2)nn1`, the cell number change was -8.38%. Moreover, the AC50 under setting [1] is 2.31 µM [rising, partial curve].
Turning to `CNC(=O)c1nc(C)c(C2(C)CC(c3cccc([N+](=O)[O-])c3)=NO2)s1` (stereo not drawn), the cell number change is -3.4%. For the same compound, under setting [1], the half-maximal activity concentration (AC50) was 6.51 µM [rising, single point].
With `COc1ccc(CN(Cc2ccc(C(=O)O)cc2)C(=S)Nc2cccc(C)c2)cc1OC`, the cell number change is -20.7%. Also, the AC50 under setting [2] is 6.51 µM [falling, partial curve]. The AC50 under setting [1] is 5.8 µM [falling, partial curve].
As for `CCCC(=O)Nc1c(-c2cccs2)c(=O)c2ccccc2n1C`, the cell number change amounted to 36.9%. For the same compound, under setting [2], the AC50 is 7.31 µM [rising, partial curve]. For the same compound, the AC50 under setting [1] is 2.31 µM [rising, partial curve, poor fit].
As for `O=c1c2ccccc2nc(-c2cccs2)n1-c1ccc2ccccc2c1`, the cell number change was found to be 32%. Further, the AC50 under setting [2] is 2.06 µM [rising, partial curve].
With `COCCCNC(=O)c1ccc(C(=O)NCCCOC)cc1`, the cell number change is 1.91%. The AC50 under setting [1] is 6.51 µM [rising, partial curve, poor fit].
Turning to `COc1ccc(OC(=O)C2CC(=O)N(c3ccc(C)cc3)C2)cc1` (stereo not drawn), the cell number change is 21%. Also, the AC50 under setting [1] was 0.411 µM [rising, full curve, poor fit].
As to `C=CCn1cc(C(=O)NCc2ccc3c(c2)OCO3)c(=O)c2cc(S(=O)(=O)N(CC)CC)ccc21`, the cell number change is -30.3%. Further, under setting [2], the AC50 was 29.1 µM [falling, single point]. The AC50 under setting [1] is 0.00461 µM [falling, full curve, poor fit].
